Results: paper PMC7432781, “An EPR Study on the Interaction between the Cu(I) Metal Binding Domains of ATP7B and the Atox1 Metallochaperone” (International Journal of Molecular Sciences, 2020)
No constants are given. Whether binding was seen depends on the method and setting. Some entries that bind do so weakly or less than the wild type.

T1: ATP7B metal binding domains 1-3, spin-labeled (human) (UniProt P35670)
T1 sequence (chain, MTSL nitroxide spin label (R1) on C108, C113 and C305): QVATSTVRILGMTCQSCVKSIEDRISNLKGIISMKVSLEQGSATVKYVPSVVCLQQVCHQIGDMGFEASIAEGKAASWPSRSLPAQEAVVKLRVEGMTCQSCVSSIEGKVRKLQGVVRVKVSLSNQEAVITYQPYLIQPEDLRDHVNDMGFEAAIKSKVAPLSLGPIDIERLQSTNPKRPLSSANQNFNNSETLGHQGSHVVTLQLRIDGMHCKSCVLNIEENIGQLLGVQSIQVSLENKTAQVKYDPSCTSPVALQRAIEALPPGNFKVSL

B1: Atox1 metallochaperone, wild-type, non spin-labeled (natural protein, human)
chain: MPKHEFSVDMTCGGCAEAVSRVLNKLGGVKYDIDLPNKKVCIESEHSMDTLLATLKKTGKTVSYLGLE
notes: Atox1 copper metallochaperone, human, wild type
B2: Atox1 metallochaperone, spin-labeled at C41 (protein, UniProt O00244 1-68)
chain: B1 chain
modifications: MTSL nitroxide spin label (R1) on C41

What was measured:
[1] = biological target: T1, ATP7B metal binding domains 1-3, spin-labeled (human); assay: CW-EPR of spin-labeled proteins; X-band, room temperature (292 ± 5 K), in solution; Atox1 or sl-Atox1 added to spin-labeled MBDs at 1:1 (Atox1:MBD); with and without Cu(I); spin-labeled protein 0.01-0.03 mM; both purified
[2] = biological target: T1, ATP7B metal binding domains 1-3, spin-labeled (human); assay: DEER (pulsed EPR distance measurement); Q-band, 50 ± 1.0 K; spin-labeled MBDs in the absence and presence of Atox1 or sl-Atox1; both purified

Binder	binding [1]	binding [2]
B1	binds	binds
B2	binds	binds
